PubChem BioAssay AID1259308, NCATS | 2017
Shown is one part, drawn at random, of about 59,000 reagents. Over the whole deposit, about 1,510 (2.6%) are marked active. 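Calls use total luciferase alone and ignore viability, so some active siRNAs may act by altering cell number.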 Reagents against one gene are numbered here.

Purpose: 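Genes whose loss raises luciferase production in HEK293 cells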 (primary screen)
Cells: human HEK293 embryonic kidney cells stably expressing firefly luciferase (HEK-CMV-Luc2-Hygro)
Reagent: single siRNA against human genes, 0.8 pmol siRNA per well
Duration: 72 h
Read-out: 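Luciferase light (ONE-Glo) measured on one replicate plate set and viability (CellTiter-Glo) on the other, scaled to a negative control siRNA, with robust z-scores and luciferase per cell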
Reading the numbers: total luciferase, z-score and total luciferase, % of control: higher = more reporter protein produced; luciferase per cell, z-score: higher = more reporter output per viable cell; viable cells, % of control: higher = more viable cells
Rule for the call: 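An siRNA counts as active if its total luciferase robust z-score exceeds 3; genes with two or more such siRNAs out of three were retested with fresh siRNAs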
Meaning of the calls: active = raised luciferase; inactive = no rise

gene knocked down	reagent no.	total luciferase, z-score	total luciferase, % of control	luciferase per cell, z-score	viable cells, % of control	outcome
GRIK1	1	-1.15	59	-1.56	99.5	inactive
GRIK1	2	1.31	108	0.458	107	inactive
GRIK1	3	0.339	88.6	-0.301	107	inactive
MDGA1	1	-0.416	73.6	-0.706	99.1	inactive
MDGA1	2	-0.457	72.8	0.0895	79.5	inactive
MDGA1	3	-1.01	61.7	-0.243	73.5	inactive
TCAIM	1	0.169	85.2	-0.716	115	inactive
TCAIM	2	1.98	121	1.72	86.2	inactive
TCAIM	3	2.49	131	1.86	89.8	inactive
FGF12	1	-0.713	67.7	-0.904	96	inactive
FGF12	2	-0.263	76.7	0.301	79.1	inactive
FGF12	3	-0.936	63.3	-0.761	86.4	inactive
BPNT1	1	-0.94	63.2	-0.585	82.4	inactive
BPNT1	2	-0.167	78.6	-0.7	106	inactive
BPNT1	3	0.0151	82.2	-0.234	97.7	inactive
TACC3	1	5.18	185	3.87	74.6	active
TACC3	2	-1.54	51.3	-0.724	69.3	inactive
TACC3	3	0.659	95	1.2	77.3	inactive
TMEM167A	1	-1.15	59	-0.877	83	inactive
TMEM167A	2	3	142	2.23	87.9	active
TMEM167A	3	0.902	99.8	0.821	89.9	inactive
ADAM15	1	-0.589	70.2	-0.228	83.3	inactive
ADAM15	2	-1.3	56	-1.04	82.4	inactive
ADAM15	3	-2.1	40.1	-2.74	92.2	inactive
NFS1	1	-0.753	66.9	-0.537	86.1	inactive
NFS1	2	0.28	87.5	-0.359	107	inactive
NFS1	3	0.947	101	1.76	70.8	inactive

9 entries from above, reformatted:
gene knocked down | reagent no. | total luciferase, z-score | total luciferase, % of control | luciferase per cell, z-score | viable cells, % of control | outcome
TACC3 | 2 | -1.54 | 51.3 | -0.724 | 69.3 | inactive
TACC3 | 3 | 0.659 | 95 | 1.2 | 77.3 | inactive
TMEM167A | 1 | -1.15 | 59 | -0.877 | 83 | inactive
TMEM167A | 2 | 3 | 142 | 2.23 | 87.9 | active
TMEM167A | 3 | 0.902 | 99.8 | 0.821 | 89.9 | inactive
ADAM15 | 1 | -0.589 | 70.2 | -0.228 | 83.3 | inactive
ADAM15 | 2 | -1.3 | 56 | -1.04 | 82.4 | inactive
ADAM15 | 3 | -2.1 | 40.1 | -2.74 | 92.2 | inactive
NFS1 | 1 | -0.753 | 66.9 | -0.537 | 86.1 | inactive

The listing continues.
gene knocked down	reagent no.	total luciferase, z-score	total luciferase, % of control	luciferase per cell, z-score	viable cells, % of control	outcome
HPS6	1	-0.115	79.6	-0.173	93.1	inactive
HPS6	2	0.594	93.7	0.0811	102	inactive
HPS6	3	1.92	120	1.14	99.6	inactive
KCND1	1	-0.276	76.4	-0.573	99.3	inactive
KCND1	2	-0.961	62.8	-1.4	102	inactive
KCND1	3	0.0892	83.7	-0.0894	95.7	inactive
SGMS2	1	-2.09	40.3	-2.46	86	inactive
SGMS2	2	-0.265	76.6	-0.536	98.6	inactive
SGMS2	3	-0.571	70.5	-0.716	95.2	inactive
RRAGC	1	0.2	85.9	0.775	78.2	inactive
RRAGC	2	0.314	88.1	-0.361	108	inactive
RRAGC	3	-0.933	63.3	-1.08	94	inactive
FBXL8	1	0.0595	83.1	-0.4	103	inactive
FBXL8	2	0.348	88.8	0.613	84.5	inactive
FBXL8	3	-0.41	73.7	-0.867	104	inactive
GP1BA	1	-1.1	60	-0.923	85.4	inactive
GP1BA	2	0.0436	82.8	1.69	59.3	inactive
GP1BA	3	1.59	114	1.52	85	inactive
RAB24	1	-0.0916	80.1	-0.626	106	inactive
RAB24	2	-0.212	77.7	-0.433	97.3	inactive
RAB24	3	0.0913	83.7	1.23	67.7	inactive
FBN3	1	1.4	110	1.29	87.2	inactive
FBN3	2	-0.608	69.8	-0.797	96.2	inactive
FBN3	3	0.619	94.2	2.1	60.6	inactive
TMEM176B	1	-0.176	78.4	-0.0948	89.8	inactive
TMEM176B	2	1.33	108	0.616	103	inactive
TMEM176B	3	-2.56	30.9	-3.89	96	inactive
HASPIN	1	1.84	119	3.02	59.9	inactive
HASPIN	2	0.869	99.2	-0.19	117	inactive
HASPIN	3	-0.552	70.9	-0.924	101	inactive
